This note sets out measurements from the odorant receptor screen of Mainland et al. (2015).

Several values for one entry are separate records, joined by “and”; a condition that tells them apart may be missing. Equal values may be shown once. Some of the results follow. Single wells; the ratio to wells without odorant was worked out here, and repeats agree poorly.

What all share (assay): odorant receptor activation (CRE luciferase / Renilla) (fold of no-odor wells); higher = more activation
What all share (details): 100 µM

For assay [1], the system named is OR10C1 clone 1065.
Assay [2] relates to OR10G3 S73G clone 1272.
Assay [3] has as its system OR10G4 A9V/M134V/V195E/R235G/K295Q clone 1119.
Assay [4] deals with OR10G6 clone 1108.
The subject of assay [5] is OR10G7 clone 1589.
Assay [6] deals with OR10G8 clone 1396.
In assay [7] the test system is OR10G9 A90T/M134V clone 1192.
Assay [8] concerns OR10H1 clone 1291.
Assay [9] concerns OR10H2 L40Q clone 1461.
The subject of assay [10] is OR10H3 clone 1525.
Assay [11] concerns OR10H5 A224D clone 1294.
Assay [12] concerns OR10J1 clone 1711.
Assay [13] concerns OR10J3 clone 1458.
The subject of assay [14] is OR10J5 R233W clone 1410.
The subject of assay [15] is OR10J5 clone 1037.
Assay [16] concerns OR10K1 clone 1024.
Assay [17] deals with OR10K2 clone 1040.
Assay [18] relates to OR10P1 clone 1254.
The subject of assay [19] is OR10Q1 clone 1202.
Assay [20] concerns OR10R2 A191T/E216G/L239F clone 1304.

As to `C=CCc1ccc(OC(C)=O)c(OC)c1` [eugenol acetate], the odorant receptor activation in assay [1] stood at 1.68; in [2] it was 1.96; in [3], 1.32; in assay [4], 1.95; in [5] it was 1.22; in assay [6] it was 1.71. Moreover, the odorant receptor activation in assay [7] amounted to 1.68; in [8], 1.42; in assay [9], 1.8; in assay [10], 1.63; in assay [11], 1.58; in assay [12], 2.29. In addition, the odorant receptor activation in [13] was 1.73; in [14] it was 1.69; in assay [15], 1.67; in assay [16], 1.87; in [17] it was 1.63; in assay [18] it was 1.74. The odorant receptor activation worked out at 2.23 in [19] and 1.64 in assay [20].
Turning to `CC(C)(C)c1ccc(CCC=O)cc1` [bourgeonal], the odorant receptor activation is 0.901 in assay [1]; 0.783 in assay [2]; 0.872 in [4]; 0.283 in assay [6]; 0.85 in [7]; 1.05 in assay [8]. For the same compound, the odorant receptor activation in [9] is 1.2; in [10] it was 0.7; in assay [11], 0.769; in assay [14], 0.167; in assay [15] it was 1.65; in assay [16], 1.21. For the same compound, the odorant receptor activation was 0.763 in assay [17], 0.65 in assay [18], 0.865 in assay [19] and 0.781 in assay [20].
`CC1=NC(C)SC1C` (stereo unspecified): the odorant receptor activation worked out at 0.679 in assay [1]; 1.95 in assay [2]; 1.94 in [4]; 0.986 in assay [6]; 0.817 in assay [7]; 1.37 in assay [8]. The odorant receptor activation in assay [9] is 1.21 and 1; in assay [10] it was 1.05 and 0.982; in [11], 2.41; in [14], 0.931; in assay [15], 1.19; in assay [16], 0.799. Also, the odorant receptor activation in assay [17] came out at 1.34; in assay [18] it was 2.44; in assay [19] it was 1.14; in assay [20], 0.759.
On to `CC1CCC(C(C)C)C(O)C1` (single isomer, unassigned; (-)) [(-)-menthol], for which the odorant receptor activation worked out at 3.71 in [1]; 0.667 in assay [2]; 0.997 in assay [3]; 31.9 in assay [4]; 0.934 in assay [5]; 0.823 in assay [6]. For the same compound, the odorant receptor activation worked out at 1.07 in [7]; 0.653 in assay [8]; 2.49 in assay [9]; 4.49 in [10]; 0.592 in assay [11]; 0.708 in assay [12]. Besides, the odorant receptor activation stood at 0.727 in assay [13]; 1.57 in assay [14]; 3.95 in [15]; 4.59 in assay [16]; 2.45 in assay [17]; 0.841 in assay [18]. Further, the odorant receptor activation in assay [19] came to 1.32; in assay [20], 0.751.
Turning to `COC(=O)c1ccccc1O` [methyl salicylate], the odorant receptor activation in [1] was 0.942; in assay [2], 1.25; in assay [3], 1.1; in assay [4], 0.986; in assay [5] it was 1.38; in assay [6], 1.05. Moreover, the odorant receptor activation in assay [7] was found to be 1.27; in [8], 0.782; in [9] it was 0.706; in [10] it was 0.94; in [11], 0.78; in assay [12], 1.14. The odorant receptor activation was 0.811 in assay [13]; 1.18 in assay [14]; 0.988 in assay [15]; 1.17 in assay [16]; 0.846 in assay [17]; 0.906 in [18]. The results for the odorant receptor activation in assay [19] and in [20] were 1.02 and 0.922, respectively.
For `CC1COCc2cc3c(cc21)C(C)(C)C(C)C3(C)C` (stereo unspecified) [galaxolide], the odorant receptor activation was 10.2 in [1]; 0.581 and 1.55 in assay [3]; 3.79 in [4]; 1.99 and 2.06 in [5]; 2.34 in [6]; 4.1 in [7]. The odorant receptor activation in assay [9] was 5.92 and 4.23; in assay [12] it was 1.67 and 0.923; in assay [13], 1.05 and 1.12; in [14], 2.9; in assay [15], 4.59; in assay [16], 7.41. For the same compound, the odorant receptor activation in assay [17] was found to be 3.37; in [19], 4.08.
Regarding `CC1CCC(C(C)C)C(O)C1` (single isomer, unassigned; (+)) [(+)-menthol], the odorant receptor activation in assay [1] turned out to be 2.95; in assay [2], 0.929; in assay [3], 0.942; in assay [4], 31.4; in assay [5], 0.708; in assay [6], 0.84. Moreover, the odorant receptor activation in assay [7] is 1.29; in [8], 0.837; in assay [9], 1.07; in [10], 1.23; in assay [11], 0.564; in assay [12] it was 0.666. For the same compound, the odorant receptor activation was 0.971 in assay [13]; 1.07 in [14]; 3.08 in assay [15]; 3.67 in assay [16]; 2.71 in [17]; 0.834 in [18]. In addition, the odorant receptor activation is 1.12 in assay [19] and 0.844 in assay [20].
